This assay concerns the target Yes-associated protein 1 (YAP1), mouse, endogenous in CAF cells (mouse (endogenous in CAF)) (UniProt P46938). In words: co-IP; lysate of mouse CAF cells; YAP1 or TEAD1 antibody overnight at 4 °C, protein A agarose magnetic beads, washed 3 times with lysis buffer; western blot with a YAP1 or TEAD1 antibody.

The chains behind the UniProt entries cited, without tags or fusion partners.
UniProt P46938: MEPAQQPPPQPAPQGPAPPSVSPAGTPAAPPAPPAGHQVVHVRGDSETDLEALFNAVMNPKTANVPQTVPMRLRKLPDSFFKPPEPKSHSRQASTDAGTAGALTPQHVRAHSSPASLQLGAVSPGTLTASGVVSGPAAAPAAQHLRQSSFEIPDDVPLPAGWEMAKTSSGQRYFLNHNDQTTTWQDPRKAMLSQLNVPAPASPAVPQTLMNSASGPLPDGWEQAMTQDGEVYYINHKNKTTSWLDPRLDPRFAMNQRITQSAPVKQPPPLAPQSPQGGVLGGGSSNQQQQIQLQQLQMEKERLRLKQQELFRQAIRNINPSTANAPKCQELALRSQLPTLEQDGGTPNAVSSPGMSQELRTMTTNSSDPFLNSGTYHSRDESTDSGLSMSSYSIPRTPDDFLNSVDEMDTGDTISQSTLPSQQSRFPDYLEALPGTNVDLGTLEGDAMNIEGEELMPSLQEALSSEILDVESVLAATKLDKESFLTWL
UniProt P30051: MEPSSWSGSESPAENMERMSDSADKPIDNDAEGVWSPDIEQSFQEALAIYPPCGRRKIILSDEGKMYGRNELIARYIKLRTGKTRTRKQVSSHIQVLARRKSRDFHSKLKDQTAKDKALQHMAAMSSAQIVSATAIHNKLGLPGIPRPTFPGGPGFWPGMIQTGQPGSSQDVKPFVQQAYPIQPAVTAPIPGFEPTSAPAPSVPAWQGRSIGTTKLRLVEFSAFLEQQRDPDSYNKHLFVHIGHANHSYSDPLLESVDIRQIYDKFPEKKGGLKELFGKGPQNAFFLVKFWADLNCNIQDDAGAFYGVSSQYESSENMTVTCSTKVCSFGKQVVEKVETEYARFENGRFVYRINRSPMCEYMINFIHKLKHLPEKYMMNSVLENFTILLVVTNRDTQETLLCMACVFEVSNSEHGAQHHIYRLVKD

No constants are given. Whether binding was seen depends on the method and setting. Binding seen in cells or lysates may run through a third protein. Some entries that bind do so weakly or less than the wild type.

The record followed here is article PMC7027236.

With “TEA domain transcription factor 1 (TEAD1), mouse, endogenous in CAF cells (from UniProt P30051 1-426)”, the binding result is given as “binds”.
